Experimental data published in patent publication US9227923B2, “Pesticidal carboxamides” (Bayer Intellectual Property GmbH, priority 2009, dated 2016).
Some entries share one result that the patent states for a list of compounds.

How the values were obtained:
Boophilus microplus = Boophilus microplus test (injection); assay type: in vivo; details: application rate of 20 μg/animal, after 7 days
Experimental: (§1) Solvent: dimethyl sulfoxide
Five adult engorged female ticks (Boophilus microplus) are injected with […] compound solution into the abdomen. Ticks are transferred into replica plates and incubated in a climate chamber for a period of time. Egg deposition of fertile eggs is monitored.
After 7 days mortality in % is determined. 100% means that all eggs are infertile; 0% means that all eggs are fertile. […]

Ctenocephalides felis = assay type: in vivo; details: application rate of 100 ppm in cattle blood; after 2 days
Experimental: as §1
Approximately 20 adult unfed (Ctenocepahlides felis) are placed in flea chambers. […] The blood chamber is heated to 37° C. whereas the flea chamber is kept at room temperature.

Row | SMILES | activity (mortality in %; 100% means that all eggs are infertile) (Boophilus microplus) | activity (mortality in %) (Ctenocephalides felis)
1 | CC(=O)NCc1ccc(C(=O)Nc2c(C)cc(C(F)(C(F)(F)F)C(F)(F)F)cc2C)c(F)c1 [Compound 5-21] | 100% | 90%
2 | CCC(=O)NCc1ccc(C(=O)Nc2c(C)cc(C(F)(C(F)(F)F)C(F)(F)F)cc2CC)cc1 [Compound 5-29] | 100% | 95%
3 | CCc1cc(C(F)(C(F)(F)F)C(F)(F)F)cc(C)c1NC(=O)c1ccc(CNC(=O)C2CC2)cc1 [Compound 5-30] | 100% | 90%
4 | CCc1cc(C(F)(C(F)(F)F)C(F)(F)F)cc(C)c1NC(=O)c1ccc(CNC(=O)CC2CC2)cc1 [Compound 5-31] | 100% | 100%
5 | CCc1cc(C(F)(C(F)(F)F)C(F)(F)F)cc(C)c1NC(=O)c1ccc(CNC(=O)c2ccccc2F)cc1 [Compound 5-34] | 100% | –
6 | CCc1cc(C(F)(C(F)(F)F)C(F)(F)F)cc(C)c1NC(=O)c1ccc(CNC(=O)c2cccc(F)c2)cc1 [Compound 5-35] | 100% | –
7 | CCc1cc(C(F)(C(F)(F)F)C(F)(F)F)cc(C)c1NC(=O)c1ccc(CNC(=O)c2ccccc2Cl)cc1 [Compound 5-37] | 100% | –
8 | CCc1cc(C(F)(C(F)(F)F)C(F)(F)F)cc(C)c1NC(=O)c1ccc(CNC(=O)c2cccnc2F)cc1 [Compound 5-40] | 100% | –
9 | CCc1cc(C(F)(C(F)(F)F)C(F)(F)F)cc(C)c1NC(=O)c1ccc(CNC(=O)c2cccnc2Cl)cc1 [Compound 5-41] | 100% | –
10 | CCc1cc(C(F)(C(F)(F)F)C(F)(F)F)cc(C)c1NC(=O)c1ccc(CNC(C)=O)cc1F [Compound 5-44] | 100% | 100%
11 | CCC(=O)NCc1ccc(C(=O)Nc2c(C)cc(C(F)(C(F)(F)F)C(F)(F)F)cc2CC)c(F)c1 [Compound 5-45] | 100% | –
12 | CCc1cc(C(F)(C(F)(F)F)C(F)(F)F)cc(C)c1NC(=O)c1ccc(CNC(=O)CC2CC2)cc1F [Compound 5-46] | 100% | 80%
13 | CCc1cc(C(F)(C(F)(F)F)C(F)(F)F)cc(C)c1NC(=O)c1ccc(CNC(=O)c2cccnc2F)cc1F [Compound 5-48] | 100% | –
14 | CCc1cc(C(F)(C(F)(F)F)C(F)(F)F)cc(C)c1NC(=O)c1cc(F)c(CNC(C)=O)cc1F [Compound 5-58] | 100% | 100%
15 | CCC(=O)NCc1cc(F)c(C(=O)Nc2c(C)cc(C(F)(C(F)(F)F)C(F)(F)F)cc2CC)cc1F [Compound 5-59] | 100% | –
16 | CCc1cc(C(F)(C(F)(F)F)C(F)(F)F)cc(C)c1NC(=O)c1ccc(CNC(C)=O)cc1Cl [Compound 5-65] | – | 95%
17 | CCc1cc(C(F)(C(F)(F)F)C(F)(F)F)cc(C)c1NC(=O)c1ccc(CNC(=O)CC2CC2)cc1Cl [Compound 5-67] | – | 90%
18 | CCc1cc(C(F)(C(F)(F)F)C(F)(F)F)cc(C)c1NC(=O)c1ccc(CNC(=O)C2CC2)c(Cl)c1 [Compound 5-79] | 100% | 95%
19 | CCc1cc(C(F)(C(F)(F)F)C(F)(F)F)cc(C)c1NC(=O)c1ccc(CNC(=O)c2cccnc2F)c(Cl)c1 [Compound 5-82] | 100% | 90%

Row | SMILES | activity (mortality in %; 100% means that all eggs are infertile) (Boophilus microplus) | activity (mortality in %) (Ctenocephalides felis)
20 | C/C=C/C(=O)NCc1ccc(C(=O)Nc2c(C)cc(C(F)(C(F)(F)F)C(F)(F)F)cc2CC)cc1Br [Compound 5-90] | 100% | –
21 | CCc1cc(C(F)(C(F)(F)F)C(F)(F)F)cc(C)c1NC(=O)c1ccc(CNC(=O)c2ccc(F)cc2)c(Br)c1 [Compound 5-92] | 100% | –
22 | CCc1cc(C(F)(C(F)(F)F)C(F)(F)F)cc(C)c1NC(=O)c1ccc(CNC(=O)c2cccnc2Cl)c(Br)c1 [Compound 5-94] | 100% | 90%
23 | CCc1cc(C(F)(C(F)(F)F)C(F)(F)F)cc(C)c1NC(=O)c1ccc(CNS(C)(=O)=O)c(Br)c1 [Compound 5-96] | 100% | 90%
24 | CCc1cc(C(F)(C(F)(F)F)C(F)(F)F)cc(C)c1NC(=O)c1ccc(CNC(=O)c2cccnc2F)c(C(F)(F)F)c1 [Compound 5-112] | 100% | –
25 | CCc1cc(C(F)(C(F)(F)F)C(F)(F)C(F)(F)F)cc(C)c1NC(=O)c1ccc(CN)c(Cl)c1 (stereo not shown) [Compound 5-149] | 100% | –
26 | CCc1cc(C(F)(C(F)(F)F)C(F)(F)C(F)(F)F)cc(C)c1NC(=O)c1ccc(CNC(=O)C2CC2)c(Br)c1 (stereo not shown) [Compound 5-159] | 100% | –
27 | CCc1cc(C(F)(C(F)(F)F)C(F)(F)C(F)(F)F)cc(C)c1NC(=O)c1ccc(CNC(=O)c2cccnc2F)c(F)c1 (stereo not shown) [Compound 5-174] | 100% | 90%
28 | CCc1cc(C(F)(C(F)(F)F)C(F)(F)F)cc(C)c1NC(=O)c1ccc(CNC(=O)CS(C)(=O)=O)c(Br)c1 [Compound 5-178] | 100% | 100%
29 | CCc1cc(C(F)(C(F)(F)F)C(F)(F)F)cc(C)c1NC(=O)c1cc(F)c(CNC(=O)c2cccnc2Cl)cc1F [Compound 5-183] | 100% | –
30 | CCc1cc(C(F)(C(F)(F)F)C(F)(F)F)cc(C)c1NC(=O)c1ccc(CN(C)C(=O)CC(F)(F)F)cc1 [Compound 5-188] | 100% | –
31 | CCc1cc(C(F)(C(F)(F)F)C(F)(F)C(F)(F)F)cc(C)c1NC(=O)c1ccc(CNC(C)=O)c(I)c1 (stereo not shown) [Compound 5-194] | 100% | 100%
32 | CCc1cc(C(F)(C(F)(F)F)C(F)(F)C(F)(F)F)cc(C)c1NC(=O)c1ccc(CNC(=O)C2CC2)c(F)c1F (stereo not shown) [Compound 5-203] | 100% | 90%
33 | CCc1cc(C(F)(C(F)(F)F)C(F)(F)C(F)(F)F)cc(C)c1NC(=O)c1ccc(CNC(=O)CC(F)(F)F)c(F)c1F (stereo not shown) [Compound 5-205] | 100% | 100%
34 | CCc1cc(C(F)(C(F)(F)F)C(F)(F)C(F)(F)F)cc(C)c1NC(=O)c1ccc(CNC(=O)c2cccnc2Cl)c(F)c1F (stereo not shown) [Compound 5-206] | 100% | –
35 | CCC(=O)NCc1ccc(C(=O)Nc2c(C)cc(C(F)(C(F)(F)F)C(F)(F)F)cc2CC)c2ccccc12 [Compound 6-3] | 100% | 100%
36 | CCc1cc(C(F)(C(F)(F)F)C(F)(F)F)cc(C)c1NC(=O)c1ccc(CNC(=O)C2CC2)c2ccccc12 [Compound 6-4] | 100% | 100%
37 | CCc1cc(C(F)(C(F)(F)F)C(F)(F)F)cc(C)c1NC(=O)c1ccc(CNC(=O)CC2CC2)cn1 [Compound 7-5] | – | 90%
